Reference: PubChem BioAssay AID504444 (National Center for Advancing Translational Sciences (NCATS), 2011)
In all, about 360,000 compounds went through this assay and about 7,500 (2.1%) were called active. This list was built around the results that the source calls inconclusive (neither active nor inactive); the mix of calls is not that of the screen. Calls follow the shape of the dose curve; as a rule, active = well fitted inhibition curve with a large enough effect; inconclusive = small, poorly fitted or top-dose-only effect, or effect the other way; inactive = flat fitted curve, though single readings scatter. A potency beside an inconclusive call is a rough fit, not a confirmed value.

Experiment: Nrf2 qHTS screen for inhibitors; also: nearly all actives have a fitted effect of over 60% in size
Conditions: A549 ARE-Fluc reporter, luciferase luminescence, 18-24 h; activity change, negative = inhibition: at 46 µM (top of the series)
Method in brief: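 A549 ARE_Fluc cells (5000/well, 5% FBS OPTI-MEM) pre-incubated 2 h, then treated with compounds 18-24 h at 37C/5% CO2 in concentration-response. CellTiter-Fluor viability read first; BugLite luciferase luminescence after 15 min at room temperature gives Nrf2 activity.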
% is scaled to controls: 0 for no effect and ±100 for the full control effect; potency is read from the fitted curve at half-maximal effect.

Compound	Potency	activity change, negative = inhibition
COc1cc2c(=O)n(Cc3ccco3)c(=O)n(CC(=O)c3cccc(Br)c3)c2cc1OC	inconclusive: 29.1 µM [falling, single point]	
CCCCOc1ccc(-c2nnc(-c3ccncc3)o2)cc1	inconclusive: 9.2 µM [activator, partial curve]	
CCN(CC)c1ccc(NC(=O)COC(=O)CSc2ccc(Br)cc2C)cc1	inconclusive: 1.16 µM [falling, partial curve, poor fit]	
CC(C)N(C(=O)Cn1cc(S(=O)(=O)Cc2ccc(Cl)cc2)c2ccccc21)C(C)C	inconclusive: 14.6 µM [activator, partial curve, poor fit]	
Nc1c(C(=O)c2ccccc2)sc2nsc(SCCN3CCOCC3)c12	inconclusive: 20.6 µM [falling, single point]	
CN1/C(=C\C(=O)c2cccnc2)Sc2ccccc21	inconclusive: 6.51 µM [activator, single point]	
OCCC1CN(CC(c2ccccc2)c2ccccc2)CCN1C1CCCC1 (configuration not stated)	inconclusive: 23.1 µM [activator, single point]	
FC(F)(F)c1nnc2sc(-c3ccccn3)nn12	inactive	
CCOCCCNC(=O)/C(C#N)=C/c1ccc(Cl)c([N+](=O)[O-])c1	inactive	
COc1cc(/C=C2\CCc3ccccc3C2=O)cc(OC)c1OC	inactive	
COc1cc(OC)cc(-c2cc3ncccc3cn2)c1	inconclusive: 14.6 µM [activator, partial curve]	
CN(C)S(=O)(=O)Oc1ccsc1C(=O)Nc1ccc(Br)cc1	active: 20.6 µM	
CCCCCCNC(=O)CC(NS(=O)(=O)c1ccc(OC)cc1)C(C)C (configuration not stated)	inconclusive: 6.51 µM [activator, single point]	
O=C(Nc1nc(-c2ccccc2)cs1)c1cccnc1	inconclusive: 14.6 µM [falling, partial curve, poor fit]	
COc1ccc(OCC(=O)NNC(=S)NC(=O)C2CC2)cc1	inconclusive: 29.1 µM [falling, single point]	
CC(=O)C1=C(O)C(=O)N(c2ccc(Br)cn2)C1c1ccccc1[N+](=O)[O-] (configuration not stated)	inactive	
C=CCNC(=O)C12CCC(C)(C(=O)[C@H]1Br)C2(C)C (some centres not stated)	inactive	
c1ccc2c(c1)-c1cccc3cncc-2c13	inconclusive: 18.4 µM [falling, partial curve, poor fit]	
Cn1nnnc1Sc1ncnc2scc(-c3ccsc3)c12	inconclusive: 29.1 µM [falling, single point]	
O=C(COC(=O)c1ccco1)Nc1ccc2c(c1)OCCO2	inconclusive: 11.6 µM [activator, partial curve, poor fit]	
CCCCN(C)C(=O)Cn1cnc2sc(C)c(S(=O)(=O)N3CCC(C)CC3)c2c1=O		inactive: -7.77% [at 9.27 µM]
Cc1ccc(CNc2ccc3cc(S(=O)(=O)N4CCCCC4)ccc3n2)cc1	inconclusive: 20.6 µM [falling, single point]	
O=C(c1cnc(N2CCN(c3ccccn3)CC2)c2ccccc12)N1CCN(c2cccc(Cl)c2)CC1	active: 5.8 µM	

Nothing new here: an excerpt of the list.
Compound	Potency	activity change, negative = inhibition
CCCCOc1ccc(-c2nnc(-c3ccncc3)o2)cc1	inconclusive: 9.2 µM [activator, partial curve]	
CCN(CC)c1ccc(NC(=O)COC(=O)CSc2ccc(Br)cc2C)cc1	inconclusive: 1.16 µM [falling, partial curve, poor fit]	
CC(C)N(C(=O)Cn1cc(S(=O)(=O)Cc2ccc(Cl)cc2)c2ccccc21)C(C)C	inconclusive: 14.6 µM [activator, partial curve, poor fit]	
Nc1c(C(=O)c2ccccc2)sc2nsc(SCCN3CCOCC3)c12	inconclusive: 20.6 µM [falling, single point]	
CN1/C(=C\C(=O)c2cccnc2)Sc2ccccc21	inconclusive: 6.51 µM [activator, single point]	
OCCC1CN(CC(c2ccccc2)c2ccccc2)CCN1C1CCCC1 (configuration not stated)	inconclusive: 23.1 µM [activator, single point]	
FC(F)(F)c1nnc2sc(-c3ccccn3)nn12	inactive	
CCOCCCNC(=O)/C(C#N)=C/c1ccc(Cl)c([N+](=O)[O-])c1	inactive	
COc1cc(/C=C2\CCc3ccccc3C2=O)cc(OC)c1OC	inactive	
COc1cc(OC)cc(-c2cc3ncccc3cn2)c1	inconclusive: 14.6 µM [activator, partial curve]	
CN(C)S(=O)(=O)Oc1ccsc1C(=O)Nc1ccc(Br)cc1	active: 20.6 µM	
CCCCCCNC(=O)CC(NS(=O)(=O)c1ccc(OC)cc1)C(C)C (configuration not stated)	inconclusive: 6.51 µM [activator, single point]	
O=C(Nc1nc(-c2ccccc2)cs1)c1cccnc1	inconclusive: 14.6 µM [falling, partial curve, poor fit]	
COc1ccc(OCC(=O)NNC(=S)NC(=O)C2CC2)cc1	inconclusive: 29.1 µM [falling, single point]	
CC(=O)C1=C(O)C(=O)N(c2ccc(Br)cn2)C1c1ccccc1[N+](=O)[O-] (configuration not stated)	inactive	
C=CCNC(=O)C12CCC(C)(C(=O)[C@H]1Br)C2(C)C (some centres not stated)	inactive	
c1ccc2c(c1)-c1cccc3cncc-2c13	inconclusive: 18.4 µM [falling, partial curve, poor fit]	
Cn1nnnc1Sc1ncnc2scc(-c3ccsc3)c12	inconclusive: 29.1 µM [falling, single point]	
O=C(COC(=O)c1ccco1)Nc1ccc2c(c1)OCCO2	inconclusive: 11.6 µM [activator, partial curve, poor fit]	
CCCCN(C)C(=O)Cn1cnc2sc(C)c(S(=O)(=O)N3CCC(C)CC3)c2c1=O		inactive: -7.77% [at 9.27 µM]

Next part:

Compound	Potency	activity change, negative = inhibition
Cc1nn(-c2ccccc2)c2c1N(CC(=O)N1CCN(c3ccccc3F)CC1)C(=O)CS2	inconclusive: 1.64 µM [falling, partial curve, poor fit]	
Clc1ccc(-c2noc(CCCc3ccccc3)n2)cc1	inconclusive: 18.4 µM [activator, single point]	
Cc1ccc(C(=O)N2CCN(c3cccc(C)c3C)CC2)cc1S(=O)(=O)N1CCOCC1	inconclusive: 29.1 µM [falling, single point]	
CCOc1cc(C#N)c(-n2nnc3c(sc4nc(C)cc(C)c43)c2=O)cc1OCC	inactive	
O=C(Nc1nccs1)c1cc(-c2ccco2)nc2ccccc12	inactive	
Cc1cccc(N(C)C(=O)c2cc3c(=O)[nH]c4ccc(C)cc4c3s2)c1	inconclusive: 29.1 µM [falling, single point]	
COc1ccc(CC(=O)N(C)Cc2ccc(Cl)cc2)cc1S(=O)(=O)N1CCOCC1	inconclusive: 29.1 µM [falling, partial curve, poor fit]	
CCOC(=O)c1scc(-c2ccc(C)cc2)c1S(=O)(=O)Nc1cc(OC)ccc1OC	inconclusive: 20.6 µM [falling, single point]	
CCCSc1ccc([C@H]2N[C@@](Cc3ccccc3)(C(=O)OC)[C@H]3C(=O)N(CC)C(=O)[C@@H]23)cc1	inconclusive: 18.4 µM [falling, partial curve, poor fit]	
Cc1ccc(-n2c(=O)[nH]c3c(C(N)=O)nc(C(C)C)nc32)cc1	inactive	
CCc1cc(C(=O)Nc2ccccc2)cs1	inconclusive: 4.11 µM [activator, full curve]	
Cc1cc(=O)n2[nH]c(-c3ccc(Cl)cc3)cc2n1	inconclusive: 2.06 µM [activator, full curve]	
COc1ccc(CCNC(=O)c2cc3c(=O)n(C)c4ccccc4c3n2C)c(OC)c1	inconclusive: 3.66 µM [falling, full curve]	
COc1ccc(C2(C)NC(=O)N(CC(=O)Nc3ccc(Br)c(C)c3)C2=O)cc1OC (configuration not stated)	inconclusive: 32.6 µM [falling, single point]	
Cc1nn2cc(-c3ncc(C(F)(F)F)cc3Cl)cnc2c1Br	inconclusive: 4.11 µM [activator, partial curve]	
COc1nc(NS(=O)(=O)c2ccc(C)cc2)nc(C)c1Cl	inconclusive: 2.59 µM [falling, partial curve, poor fit]	
CCOc1ccc(NC(=O)CN(C)C(=O)C2CC(=O)N(CCc3ccccc3)C2)cc1OCC (configuration not stated)	inactive	
CCN(Cc1ccncc1)Cc1c(O)ccc2cc(Br)ccc12	inactive	
O=C(NC(NC(=S)Nc1cccc(Cl)c1)C(Cl)(Cl)Cl)OCc1ccccc1 (configuration not stated)	active: 16.4 µM	
O=C1C=C(c2cccc(Cl)c2)C[C@@H](c2ccc(Cl)cc2)C1	inconclusive: 13 µM [falling, partial curve, poor fit]	
O=C(NCCCN1CCOCC1)c1ccc(NS(=O)(=O)c2ccccc2)cc1	inconclusive: 32.6 µM [activator, partial curve, poor fit]	
O=C(c1ccccc1OC(F)F)N1CCN(S(=O)(=O)c2ccc3c(c2)OCCCO3)CC1	inconclusive: 29.1 µM [falling, single point]	
C=CC(=O)Oc1ccc(N2Cc3ccccc3C2=O)cc1	inconclusive: 11.6 µM [activator, partial curve]	

Compound	Potency	activity change, negative = inhibition
CCCn1c(=O)c2ccccc2n2c(SCc3c(C(=O)OCC)oc4ccccc34)nnc12	inconclusive: 16.4 µM [falling, single point]	
CCCCCCC(=O)N(O)C1CC(=O)N(Cc2ccccc2)C1=O (configuration not stated)	inconclusive: 0.0731 µM [activator, full curve, poor fit]	
Clc1ccc(-n2c(Cc3ccccc3)nnc2SCc2nc(-c3cccs3)no2)cc1	inconclusive: 29.1 µM [falling, single point]	
COc1ccc(CN2CCN(CC=C(C)C)C(CCO)C2)cc1Cn1cncn1 (configuration not stated)	inconclusive: 20.6 µM [activator, single point]	
CC(=O)Nc1ccc(NC(=O)CSc2ccc(-c3sc(C)nc3C)nn2)cc1	inconclusive: 18.4 µM [activator, partial curve]	
O=C1/C(=C/c2cccs2)SC(=S)N1CCC(=O)N1CCCCC1CCO (configuration not stated)	inconclusive: 29.1 µM [activator, single point]	
CC1CCN(C(=O)COC(=O)CNC(=O)c2ccccc2F)CC1	inactive	
Cc1ccc(-c2noc(CSc3nnc(-c4ccncc4)n3-c3ccc(C)cc3)n2)cc1	inconclusive: 25.9 µM [falling, single point]	
Cc1ccc2nc(-c3ccccc3)cc(C(=O)N3CC(C)OC(C)C3)c2c1 (configuration not stated)	inconclusive: 13 µM [activator, partial curve]	
Cc1ccc(S(=O)(=O)N(C)C)cc1NC(=O)c1cc(=O)[nH]c2ccccc12	inconclusive: 23.1 µM [falling, partial curve, poor fit]	
C[n+]1cn(CC(O)COCc2ccccc2)c2ccccc21 (configuration not stated)	inactive	
Cc1nc(N2CCCC2)c2c(C(=O)N3CCN(c4cc(Cl)ccc4C)CC3)c(C)oc2n1	inconclusive: 3.66 µM [falling, partial curve, poor fit]	
O=C1C(Cl)=C(N2CCOCC2)C(=O)N1c1ccccc1Cl	inactive	
Cc1ccc(C(=O)c2cn(Cc3ccccc3)c3nc(C)ccc3c2=O)cc1	inactive	
COc1cccc(/C(N)=N/OC(=O)Cc2ccccc2[N+](=O)[O-])c1	inconclusive: 23.1 µM [activator, partial curve]	
Cc1cccc(OCCCC(=O)Nc2nccs2)c1C	inconclusive: 6.51 µM [activator, partial curve]	
Cc1ccc(C)c(OCCC(=O)Nc2cc(S(=O)(=O)N3CCCCC3)ccc2C)c1	inconclusive: 23.1 µM [falling, partial curve, poor fit]	
O=C(Nc1ccccc1)c1snc2c(=O)[nH]cnc12	inactive	
COc1cc(/C=N/N2CCN(Cc3ccc(Cl)cc3)CC2)cc(Br)c1O	inconclusive: 0.164 µM [activator, partial curve, poor fit]	
O=C1c2ccccc2C(=O)N1CCCC(=O)N1CCCc2ccccc21	inconclusive: 8.2 µM [activator, partial curve, poor fit]	
CN(CCc1ccccc1)C(=O)c1ccc(NC(=O)Cc2ccc(NC(=O)C3CCCN(C(=O)c4ccccc4)C3)cc2)cc1 (configuration not stated)	inconclusive: 23.1 µM [falling, single point]	
